# Assay results as given in the supplement of paper PMC10032668.
# Protein sequences, listed by entry. Tags and fused reporters are not part of them.
# AHSA1, O95433, UniProt O95433, whole entry: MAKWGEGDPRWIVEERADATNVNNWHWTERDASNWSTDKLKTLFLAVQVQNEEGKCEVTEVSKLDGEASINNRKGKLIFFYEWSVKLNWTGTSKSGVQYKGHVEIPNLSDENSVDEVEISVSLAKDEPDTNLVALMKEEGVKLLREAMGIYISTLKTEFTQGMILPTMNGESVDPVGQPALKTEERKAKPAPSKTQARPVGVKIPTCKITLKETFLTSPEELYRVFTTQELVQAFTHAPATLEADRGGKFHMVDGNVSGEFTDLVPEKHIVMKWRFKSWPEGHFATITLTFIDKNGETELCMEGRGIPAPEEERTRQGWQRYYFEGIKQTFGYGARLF
# COA4, Q9NYJ1, UniProt Q9NYJ1, whole entry: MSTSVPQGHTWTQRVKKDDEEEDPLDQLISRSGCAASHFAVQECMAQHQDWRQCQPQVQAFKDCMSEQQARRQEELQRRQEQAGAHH
# DNAJB1, P25685, UniProt P25685, whole entry: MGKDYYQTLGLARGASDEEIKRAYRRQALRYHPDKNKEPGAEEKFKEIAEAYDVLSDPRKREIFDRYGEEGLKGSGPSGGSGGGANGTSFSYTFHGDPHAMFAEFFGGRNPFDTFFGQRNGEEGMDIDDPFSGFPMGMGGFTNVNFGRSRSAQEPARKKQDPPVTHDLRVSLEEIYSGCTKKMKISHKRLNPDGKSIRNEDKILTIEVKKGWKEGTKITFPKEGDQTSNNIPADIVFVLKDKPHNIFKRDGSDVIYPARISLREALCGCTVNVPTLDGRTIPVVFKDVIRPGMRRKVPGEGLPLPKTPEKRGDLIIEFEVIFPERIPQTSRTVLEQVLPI
# EIF1B, O60739, UniProt O60739, whole entry: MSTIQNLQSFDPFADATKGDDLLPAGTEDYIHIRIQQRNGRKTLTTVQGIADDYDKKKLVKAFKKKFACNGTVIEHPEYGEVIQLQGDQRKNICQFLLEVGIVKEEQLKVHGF
# NDUFS6, O75380, UniProt O75380, whole entry: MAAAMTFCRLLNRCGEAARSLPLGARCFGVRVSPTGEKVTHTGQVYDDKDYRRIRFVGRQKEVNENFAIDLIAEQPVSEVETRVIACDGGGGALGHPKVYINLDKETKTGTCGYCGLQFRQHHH
# NUP153, P49790, UniProt P49790, whole entry: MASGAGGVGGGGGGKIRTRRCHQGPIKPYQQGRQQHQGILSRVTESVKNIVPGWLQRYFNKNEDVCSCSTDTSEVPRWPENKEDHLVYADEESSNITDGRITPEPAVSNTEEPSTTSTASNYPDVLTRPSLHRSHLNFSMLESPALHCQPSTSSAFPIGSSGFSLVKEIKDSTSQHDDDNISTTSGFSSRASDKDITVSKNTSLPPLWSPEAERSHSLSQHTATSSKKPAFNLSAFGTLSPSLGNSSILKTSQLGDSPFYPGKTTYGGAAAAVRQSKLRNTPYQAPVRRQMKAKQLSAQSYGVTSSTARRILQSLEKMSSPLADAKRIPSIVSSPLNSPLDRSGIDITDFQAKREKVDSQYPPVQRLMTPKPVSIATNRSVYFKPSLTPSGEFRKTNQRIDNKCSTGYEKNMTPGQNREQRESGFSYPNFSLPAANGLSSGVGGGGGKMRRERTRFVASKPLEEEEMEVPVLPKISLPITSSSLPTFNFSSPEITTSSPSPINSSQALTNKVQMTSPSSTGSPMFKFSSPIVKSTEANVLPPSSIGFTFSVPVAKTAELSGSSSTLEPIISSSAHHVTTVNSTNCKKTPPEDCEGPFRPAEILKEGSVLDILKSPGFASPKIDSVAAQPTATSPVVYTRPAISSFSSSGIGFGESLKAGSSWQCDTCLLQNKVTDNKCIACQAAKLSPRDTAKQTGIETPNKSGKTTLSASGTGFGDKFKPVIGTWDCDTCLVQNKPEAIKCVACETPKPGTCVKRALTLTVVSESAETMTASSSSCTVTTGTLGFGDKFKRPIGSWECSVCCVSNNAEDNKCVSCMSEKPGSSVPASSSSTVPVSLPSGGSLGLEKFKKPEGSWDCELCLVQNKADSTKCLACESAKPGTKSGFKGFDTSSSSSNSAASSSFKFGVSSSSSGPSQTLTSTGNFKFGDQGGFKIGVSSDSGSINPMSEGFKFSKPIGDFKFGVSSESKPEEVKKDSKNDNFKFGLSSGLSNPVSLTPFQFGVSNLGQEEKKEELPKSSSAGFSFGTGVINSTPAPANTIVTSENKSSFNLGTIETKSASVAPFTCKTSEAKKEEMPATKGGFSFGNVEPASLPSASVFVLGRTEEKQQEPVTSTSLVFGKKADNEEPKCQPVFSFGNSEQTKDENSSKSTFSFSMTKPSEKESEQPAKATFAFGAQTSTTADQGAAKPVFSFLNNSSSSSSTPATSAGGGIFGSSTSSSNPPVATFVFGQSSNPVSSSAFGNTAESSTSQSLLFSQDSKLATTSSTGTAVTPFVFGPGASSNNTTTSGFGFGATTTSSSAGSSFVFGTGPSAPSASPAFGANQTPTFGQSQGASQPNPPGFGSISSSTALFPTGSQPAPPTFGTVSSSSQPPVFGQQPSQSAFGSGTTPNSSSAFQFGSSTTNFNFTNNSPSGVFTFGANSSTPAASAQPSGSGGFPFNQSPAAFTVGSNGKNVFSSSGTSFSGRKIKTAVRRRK
# PCBP2, Q15366, UniProt Q15366, whole entry: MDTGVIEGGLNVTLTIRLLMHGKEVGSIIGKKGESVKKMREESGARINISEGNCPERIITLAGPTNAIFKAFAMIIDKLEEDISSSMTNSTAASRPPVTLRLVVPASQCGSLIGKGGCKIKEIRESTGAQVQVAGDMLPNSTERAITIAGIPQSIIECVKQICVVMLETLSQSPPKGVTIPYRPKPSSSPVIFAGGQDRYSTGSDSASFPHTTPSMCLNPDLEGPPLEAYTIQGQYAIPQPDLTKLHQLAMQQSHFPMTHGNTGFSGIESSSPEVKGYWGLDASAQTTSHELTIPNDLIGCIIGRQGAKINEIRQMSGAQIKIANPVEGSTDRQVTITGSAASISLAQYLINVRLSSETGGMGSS
# PDLIM7, Q9NR12, UniProt Q9NR12, whole entry: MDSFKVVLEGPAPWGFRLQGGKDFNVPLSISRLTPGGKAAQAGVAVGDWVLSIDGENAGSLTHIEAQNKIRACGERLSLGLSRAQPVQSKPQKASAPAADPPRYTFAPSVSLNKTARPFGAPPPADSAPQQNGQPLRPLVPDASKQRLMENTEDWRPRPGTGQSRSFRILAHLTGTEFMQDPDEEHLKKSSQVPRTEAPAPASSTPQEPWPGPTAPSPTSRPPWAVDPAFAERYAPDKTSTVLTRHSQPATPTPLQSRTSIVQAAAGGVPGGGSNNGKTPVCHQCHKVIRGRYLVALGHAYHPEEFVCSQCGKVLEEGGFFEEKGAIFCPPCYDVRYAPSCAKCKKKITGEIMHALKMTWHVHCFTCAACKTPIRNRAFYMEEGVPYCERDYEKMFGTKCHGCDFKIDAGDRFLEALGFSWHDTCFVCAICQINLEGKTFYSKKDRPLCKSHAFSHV
# The other results are listed elsewhere or left out. Only hits are listed; about a third recur on repeated control peptides.
# Tests used:
# Assay in all cases: PRISMA enrichment of interactor (LFQ) in peptide spot vs all other peptide spots (log2 fold change); higher = stronger / more specific binding of the interactor to the peptide
# AHSA1, O95433 = target: AHSA1, O95433
# Method: (§1)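 PRISMA: 221 full-length sORF-encoded peptides (3-15 aa), plus SOS1/GLUT1 control peptides, were spot-synthesized on cellulose membranes in triplicate. Membranes were incubated with HEK293T lysate, and bound proteins were identified by LC-MS/MS with LFQ. Enrichment is the log2 fold change versus all other peptide spots; only significant interactors are listed (cutoff c=6, x0=2.8).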
# BOLA3, Q53S33 = target: BOLA3, Q53S33
# Method: as §1
# C20orf27, Q9GZN8 = target: C20orf27, Q9GZN8
# Method: as §1
# COA4, Q9NYJ1 = target: COA4, Q9NYJ1
# Method: as §1
# CSRP2, Q16527 = target: CSRP2, Q16527
# Method: as §1
# CXorf56, Q9H5V9 = target: CXorf56, Q9H5V9
# Method: as §1
# DAZAP1, Q96EP5 = target: DAZAP1, Q96EP5
# Method: as §1
# DNAJB1, P25685 = target: DNAJB1, P25685
# Method: as §1
# DNAJB11, Q9UBS4 = target: DNAJB11, Q9UBS4
# Method: as §1
# EIF1B, O60739 = target: EIF1B, O60739
# Method: as §1
# EIF4H, Q15056 = target: EIF4H, Q15056
# Method: as §1
# FAM168A, Q92567 = target: FAM168A, Q92567
# Method: as §1
# ISCU, Q9H1K1 = target: ISCU, Q9H1K1
# Method: as §1
# JPT2, Q9H910 = target: JPT2, Q9H910
# Method: as §1
# KIF4A, O95239 = target: KIF4A, O95239
# Method: as §1
# NDUFS6, O75380 = target: NDUFS6, O75380
# Method: as §1
# NUP153, P49790 = target: NUP153, P49790
# Method: as §1
# NXF1, Q9UBU9 = target: NXF1, Q9UBU9
# Method: as §1
# PCBP2, Q15366 = target: PCBP2, Q15366
# Method: as §1
# [1] = substrate: PCNP, Q8WW12
# Method: as §1
# PDLIM3, Q53GG5 = target: PDLIM3, Q53GG5
# Method: as §1
# PDLIM7, Q9NR12 = target: PDLIM7, Q9NR12
# Method: as §1
# RBM14, Q96PK6 = target: RBM14, Q96PK6
# Method: as §1
# SDF2L1, Q9HCN8 = target: SDF2L1, Q9HCN8
# Method: as §1
# SEH1L, Q96EE3 = target: SEH1L, Q96EE3
# Method: as §1
# UBE2S, Q16763 = target: UBE2S, Q16763
# Method: as §1
# WDR5, P61964 = target: WDR5, P61964
# Method: as §1
binder,measurement,setting,value
MRTIYMEVSFS [MBNL2],PRISMA enrichment of interactor (log2),"AHSA1, O95433",6.08
same,PRISMA enrichment of interactor (log2),"BOLA3, Q53S33",6.15
same,PRISMA enrichment of interactor (log2),"C20orf27, Q9GZN8",3.72
same,PRISMA enrichment of interactor (log2),"COA4, Q9NYJ1",4.71
same,PRISMA enrichment of interactor (log2),"CSRP2, Q16527",5.63
same,PRISMA enrichment of interactor (log2),"CXorf56, Q9H5V9",5.47
same,PRISMA enrichment of interactor (log2),"DAZAP1, Q96EP5",5.89
same,PRISMA enrichment of interactor (log2),"DNAJB1, P25685",4.54
same,PRISMA enrichment of interactor (log2),"DNAJB11, Q9UBS4",7.03
same,PRISMA enrichment of interactor (log2),"EIF1B, O60739",4.14
same,PRISMA enrichment of interactor (log2),"EIF4H, Q15056",5.56
same,PRISMA enrichment of interactor (log2),"FAM168A, Q92567",4.83
same,PRISMA enrichment of interactor (log2),"ISCU, Q9H1K1",6.83
same,PRISMA enrichment of interactor (log2),"JPT2, Q9H910",4.65
same,PRISMA enrichment of interactor (log2),"KIF4A, O95239",5.04
same,PRISMA enrichment of interactor (log2),"NDUFS6, O75380",5.88
same,PRISMA enrichment of interactor (log2),"NUP153, P49790",6.34
same,PRISMA enrichment of interactor (log2),"NXF1, Q9UBU9",6.65
same,PRISMA enrichment of interactor (log2),"PCBP2, Q15366",5.35
same,PRISMA enrichment of interactor (log2),[1],5.69
same,PRISMA enrichment of interactor (log2),"PDLIM3, Q53GG5",3.78
same,PRISMA enrichment of interactor (log2),"PDLIM7, Q9NR12",4.49
same,PRISMA enrichment of interactor (log2),"RBM14, Q96PK6",5.94
same,PRISMA enrichment of interactor (log2),"SDF2L1, Q9HCN8",4.79
same,PRISMA enrichment of interactor (log2),"SEH1L, Q96EE3",4.31
same,PRISMA enrichment of interactor (log2),"UBE2S, Q16763",4.76
same,PRISMA enrichment of interactor (log2),"WDR5, P61964",6.39

# Reformatted tab-delimited: entries from further up
binder	measurement	setting	value
MRTIYMEVSFS [MBNL2]	PRISMA enrichment of interactor (log2)	DAZAP1, Q96EP5	5.89
same	PRISMA enrichment of interactor (log2)	PDLIM7, Q9NR12	4.49
